Measured values: PMC12695649
Results are given in words; binding and its absence hold for the method and conditions named. Binding seen in cells or lysates may run through a third protein. A yes stands for co-enrichment or nearness to the bait. Other partners may have been found.

Protein sequences, listed by entry. Tags and fused reporters are not part of them.
UniProt Q92908: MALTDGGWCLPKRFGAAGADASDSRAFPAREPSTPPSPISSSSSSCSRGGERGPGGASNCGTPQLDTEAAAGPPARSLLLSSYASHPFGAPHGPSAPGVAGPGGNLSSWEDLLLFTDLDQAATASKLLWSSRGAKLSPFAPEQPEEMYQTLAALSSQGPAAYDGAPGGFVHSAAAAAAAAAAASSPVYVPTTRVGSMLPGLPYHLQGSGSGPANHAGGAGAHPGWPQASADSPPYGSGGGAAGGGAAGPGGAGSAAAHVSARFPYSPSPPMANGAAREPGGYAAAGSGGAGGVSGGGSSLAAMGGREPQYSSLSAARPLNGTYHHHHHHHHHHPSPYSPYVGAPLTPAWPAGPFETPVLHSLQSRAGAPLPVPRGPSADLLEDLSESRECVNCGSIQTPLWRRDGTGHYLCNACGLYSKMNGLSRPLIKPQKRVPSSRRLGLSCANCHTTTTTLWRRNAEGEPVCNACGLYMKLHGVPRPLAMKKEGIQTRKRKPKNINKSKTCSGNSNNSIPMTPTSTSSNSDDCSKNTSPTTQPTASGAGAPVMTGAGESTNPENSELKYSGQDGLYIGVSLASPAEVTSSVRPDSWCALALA

T1: FOXA1 (human (endogenous in HPAF-II, AsPC-1, Miapaca-2)) (UniProt P55317)
T1 sequence: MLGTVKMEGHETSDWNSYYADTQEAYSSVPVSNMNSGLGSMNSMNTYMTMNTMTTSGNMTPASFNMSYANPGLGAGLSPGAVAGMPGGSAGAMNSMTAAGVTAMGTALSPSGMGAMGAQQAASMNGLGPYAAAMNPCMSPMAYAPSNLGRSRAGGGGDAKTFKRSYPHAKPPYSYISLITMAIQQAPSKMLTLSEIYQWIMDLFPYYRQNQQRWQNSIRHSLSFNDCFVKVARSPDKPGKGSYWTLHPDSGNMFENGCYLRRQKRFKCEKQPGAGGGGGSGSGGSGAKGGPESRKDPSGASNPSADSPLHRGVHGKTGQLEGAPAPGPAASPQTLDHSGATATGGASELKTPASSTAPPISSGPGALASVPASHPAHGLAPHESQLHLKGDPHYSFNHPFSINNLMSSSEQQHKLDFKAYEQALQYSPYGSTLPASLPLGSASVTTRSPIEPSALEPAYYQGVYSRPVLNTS

B1: HNF4A, P41235 1-474 (protein)
chain: MRLSKTLVDMDMADYSAALDPAYTTLEFENVQVLTMGNDTSPSEGTNLNAPNSLGVSALCAICGDRATGKHYGASSCDGCKGFFRRSVRKNHMYSCRFSRQCVVDKDKRNQCRYCRLKKCFRAGMKKEAVQNERDRISTRRSSYEDSSLPSINALLQAEVLSRQITSPVSGINGDIRAKKIASIADVCESMKEQLLVLVEWAKYIPAFCELPLDDQVALLRAHAGEHLLLGATKRSMVFKDVLLLGNDYIVPRHCPELAEMSRVSIRILDELVLPFQELQIDDNEYAYLKAIIFFDPDAKGLSDPGKIKRLRSQVQVSLEDYINDRQYDSRGRFGELLLLLPTLQSITWQMIEQIQFIKLFGMAKIDNLLQEMLLGGSPSDAPHAHHPLHPHLMQEHMGTNVIVANTMPTHLSNGQMCEWPRPRGQAATPETPQPSPPGGSGSEPYKLLPGAVATIVKPLSAIPQPTITKQEVI
B2: HNF4G (protein, UniProt Q14541 1-408)
chain: MNTTDNGVNCLCAICGDRATGKHYGASSCDGCKGFFRRSIRKSHVYSCRFSRQCVVDKDKRNQCRYCRLRKCFRAGMKKEAVQNERDRISTRRSTFDGSNIPSINTLAQAEVRSRQISVSSPGSSTDINVKKIASIGDVCESMKQQLLVLVEWAKYIPAFCELPLDDQVALLRAHAGEHLLLGATKRSMMYKDILLLGNNYVIHRNSCEVEISRVANRVLDELVRPFQEIQIDDNEYACLKAIVFFDPDAKGLSDPVKIKNMRFQVQIGLEDYINDRQYDSRGRFGELLLLLPTLQSITWQMIEQIQFVKLFGMVKIDNLLQEMLLGGASNDGSHLHHPMHPHLSQDPLTGQTILLGPMSTLVHADQISTPETPLPSPPQGSGQEQYKIAANQASVISHQHLSKQKQL
B3: FOXA1 (protein, UniProt P55317 1-472)
chain: T1 sequence
B4: HNF4A (protein, UniProt P41235 1-474)
chain: B1 chain

Tests used:
[1] = target: GATA6 (human (endogenous in HPAF-II, AsPC-1, Miapaca-2)), Q92908; test: affinity purification with mass spectrometry; RIME of endogenous GATA6 as bait in cross-linked AsPC-1 cells (DSG and formaldehyde, sonicated chromatin), LC-MS/MS; conditions: remark: other sources report otherwise
[2] = target: GATA6 (human (endogenous in HPAF-II, AsPC-1, Miapaca-2)) (UniProt Q92908); test: as above
[3] = target: T1, FOXA1 (human (endogenous in HPAF-II, AsPC-1, Miapaca-2)); test: affinity purification with mass spectrometry; RIME: cells cross-linked with 2 mM DSG and 1% formaldehyde, chromatin sonicated, endogenous FOXA1 immunoprecipitated overnight (Abcam ab5089 on Dynabeads), ten washes in RIPA buffer, LC-MS/MS, label-free quantification; HPAF-II, AsPC-1 and Miapaca-2 cells; three biological replicates and one pooled IgG control

| Binder | binding [2] | further results |
| --- | --- | --- |
| B1 |  | binding [1]: binds |
| B2 | binds |  |
| B3 | binds |  |
| B4 |  | binding [3]: binds |
